Reference: PubChem BioAssay AID504467 (National Center for Advancing Translational Sciences (NCATS), 2011)
In all, about 330,000 compounds went through this assay and about 7,700 (2.3%) were called active. Inconclusive results, whose numbers are uncertain, are shown with a selection of clear calls. Calls follow the shape of the dose curve; as a rule, active = well fitted inhibition curve with a large enough effect; inconclusive = small, poorly fitted or top-dose-only effect, or effect the other way; inactive = flat fitted curve, though single readings scatter. A potency beside an inconclusive call is a rough fit, not a confirmed value.

assay: qHTS screen for small molecules that inhibit ELG1-dependent DNA repair in human embryonic kidney (HEK293T) cells expressing luciferase-tagged ELG1; settings: HEK293T ELG1-luciferase reporter, luminescence, 16 h, DNA damage induced by 5-fluorouridine; activity change, negative = inhibition: at 46.1 µM (top of the series); also: nearly all actives have a fitted effect of over 55% in size
In short: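 Step one: seed 2,000 cells per well. Step two: pin-transfer compound or DMSO alongside 5-fluorouridine. Step three: incubate 16 hr, 37 °C, 5% CO2. Step four: add ONE-Glo, wait 30 min, read luminescence.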
% is scaled to controls: 0 for no effect and ±100 for the full control effect; potency is read from the fitted curve at half-maximal effect.

Row | Structure (SMILES) | Potency | activity change, negative = inhibition
1 | Cc1c(C(=O)Nc2nccs2)oc2ccc(Br)cc12 | inconclusive: 5.17 µM [activator, partial curve] | –
2 | O=C(CCN1C(=O)c2ccccc2C1=O)Nc1sc2c(c1C(=O)NCc1ccco1)CCCC2 | inconclusive: 1.16 µM [activator, single point] | –
3 | CSc1ccccc1OCc1cc(C(=O)N2C[C@H]3CC[C@H]2C3)no1 | inconclusive: 9.2 µM [activator, partial curve] | –
4 | NCCc1nc(-c2ccccc2)cs1 | – | inactive: 20.2%
5 | CC(N)=Nc1ccc([N+](=O)[O-])cc1 | – | inactive: 17%
6 | Cc1nc2ccc3nc(NC(=O)c4ccc5c(c4)OCCO5)sc3c2s1 | inconclusive: 5.8 µM [activator, single point] | –
7 | COc1cc(C(=O)Nc2nc(-c3cc(C)ccc3C)c(C)s2)ccc1OCC(=O)Nc1ccc(F)cc1 | – | inactive: -17.7%
8 | Cc1cc(C)n(-c2nc(NCCO)c3c4c(sc3n2)CCCC4)n1 | inconclusive: 29.1 µM [inhibitor, single point] | –
9 | Cc1cc(/C=C(/C#N)c2cccc(Cl)c2)c(C)n1C | inconclusive: 16.4 µM [activator, single point] | –
10 | Cc1cc(-c2ccc(N=Nc3c(S(=O)(=O)O)cc4cc(S(=O)(=O)O)cc(N)c4c3O)c(C)c2)ccc1N=Nc1c(S(=O)(=O)O)cc2cc(S(=O)(=O)O)cc(N)c2c1O | active: 7.3 µM | –
11 | Cc1cnc(C(=O)OC(C(=O)Nc2cc(C(F)(F)F)ccc2Cl)c2ccccc2)cn1 (stereo not given) | – | inactive: 10.3%
12 | CN(CCOc1ccccc1)C(=O)c1ccc(Cl)c(S(=O)(=O)N2CCCCC2)c1 | – | inactive: 4.86%
13 | COc1ccc([C@H]2Cc3cc(O)cc(O)c3C(=O)O2)cc1O | inconclusive: 5.17 µM [activator, full curve] | –
14 | Cc1nc2cc(NC(=O)N3CCC(c4ccccc4)C3)ccc2n1C (stereo not given) | inconclusive: 2.06 µM [activator, partial curve] | –
15 | COC(=O)c1ccc(Cn2nc(-c3ccc(C)c(C)c3)ccc2=O)cc1 | inconclusive: 20.6 µM [activator, partial curve, poor fit] | –
16 | O=C(Nc1ccc2oc(-c3ccccc3Cl)nc2c1)c1cncc(Br)c1 | inconclusive: 6.51 µM [activator, partial curve] | –
17 | CC(C)Oc1cccc(C(=O)NC(=S)Nc2ccc(Cl)c(C(=O)O)c2)c1 | – | inactive: 10.1%
18 | CCOC(=O)C(C)(C)N(Cc1cccc(C)c1)S(=O)(=O)c1ccc(Cl)c([N+](=O)[O-])c1 | – | inactive: 11.4%
19 | CCOC(=O)c1cnc(SC)nc1Oc1cccc(NC(=O)c2ccc(Cl)cc2)c1 | – | inactive: -18.3%
20 | COc1cccc(C(=O)Nc2nnc(-c3cccs3)s2)c1 | inconclusive: 1.3 µM [activator, full curve] | –
21 | c1ccc(OCCSc2nnnn2-c2ccccc2)cc1 | inconclusive: 3.66 µM [activator, full curve] | –
22 | COc1cccc(Nc2ncnc3c2cnn3-c2cccc(C)c2)c1 | – | inactive: 15.2%
23 | COC(=O)c1sc2nc(CSc3ccc(Br)cc3)[nH]c(=O)c2c1C | inconclusive: 18.3 µM [inhibitor, single point] | –

Row | Structure (SMILES) | Potency | activity change, negative = inhibition
24 | COC(=O)c1ccc(N=NNc2cccc(Br)c2)cc1 | inconclusive: 16.4 µM [activator, partial curve] | –
25 | Cc1ccc(NC(=O)C2CC2c2ccccc2)cc1 (stereo not given) | inconclusive: 20.6 µM [activator, partial curve] | –
26 | Clc1ccc(CSc2nnc(-c3sccc3-n3cccc3)o2)cc1 | – | inactive: -13.9%
27 | Cc1ccccc1CSc1nn2c(=O)c(C)nnc2s1 | inconclusive: 20.6 µM [activator, single point] | –
28 | CC(C)(C)n1nc2c(c1NC(=O)c1ccc(Cl)c([N+](=O)[O-])c1)CS(=O)(=O)C2 | – | inactive: 6.34%
29 | Cc1cc(-c2ccccc2)nc(N2CCC(C(=O)NC34CC5CC(CC(C5)C3)C4)CC2)n1 | inconclusive: 20.6 µM [activator, single point] | –
30 | S=C(NC1CCCCC1)c1ccc2c(c1)OCO2 | inconclusive: 8.91 µM [activator, partial curve, poor fit] | –
31 | COC(=O)c1c(NC(=O)C2CC=CCC2C(=O)O)sc(C)c1C (stereo not given) | inconclusive: 25.9 µM [activator, partial curve, poor fit] | –
32 | COc1cccc(C=O)c1OCCCOc1cccc2cccnc12 | inconclusive: 4.61 µM [activator, partial curve] | –
33 | Cc1cc(=O)n2c(C(=O)Nc3ccc(C(=O)OC(C)C)cc3)c(C(=O)Nc3ccccc3)sc2n1 | – | inactive: -9.56%
34 | Cc1nc2sc(C(=O)OCC(=O)N3c4ccccc4CC3C)c(C)c2c(=O)[nH]1 (stereo not given) | – | inactive: -13.9%
35 | Cc1ccc(S(=O)(=O)N(C)c2ccc3c(ncn3C)c2[N+](=O)[O-])cc1 | – | inactive: 2.23%
36 | CSc1ccc(S(=O)(=O)NCCOc2ccccc2C)cc1 | inconclusive: 20.6 µM [inhibitor, single point] | –
37 | CCc1ccc(OCc2nc(-c3ccccn3)no2)c(Br)c1 | inconclusive: 1.46 µM [activator, partial curve] | –
38 | COc1cc(C(=O)N2CCN(c3ccc([N+](=O)[O-])cc3)CC2)ccc1OCc1c(C)noc1C | – | inactive: -12.7%
39 | COc1ccc(C2NC(=O)C(C#N)=C(S)N2c2ccc(C)cc2)cc1OC (stereo not given) | inconclusive: 20.6 µM [activator, single point] | –
40 | C=CCOc1ccc(CN(C)C(=O)CNC(=O)c2ccc(-c3ccccc3)cc2)cc1 | active: 23.1 µM | –
41 | C[C@H](CO)N1C[C@H](C)[C@@H](CN(C)S(=O)(=O)c2ccccc2)Oc2ccc(NC(=O)C3CC3)cc2C1=O | active: 18.3 µM | –
42 | COCCNC(=O)/C(C#N)=C/c1cccc(/C=C(\C#N)C(=O)NCCOC)c1 | active: 20.6 µM | –
43 | COc1cc(/C=C(\C#N)C(=O)Nc2cc(C(F)(F)F)ccc2Cl)ccc1OCC(=O)Nc1cccc(C(F)(F)F)c1 | – | inactive: 5.51%
44 | Cc1nc(-c2nnc(-c3ccccc3)o2)c(C(F)(F)F)o1 | inconclusive: 20.6 µM [activator, single point] | –
45 | O=C(NCc1cccnc1)c1ccccc1NS(=O)(=O)c1ccccc1 | inconclusive: 29.1 µM [activator, single point] | –

Grouped by structure: the entries above containing an NH in an aromatic ring
Row | Structure (SMILES) | Potency | activity change, negative = inhibition
23 | COC(=O)c1sc2nc(CSc3ccc(Br)cc3)[nH]c(=O)c2c1C | inconclusive: 18.3 µM [inhibitor, single point] | –
34 | Cc1nc2sc(C(=O)OCC(=O)N3c4ccccc4CC3C)c(C)c2c(=O)[nH]1 (stereo not given) | – | inactive: -13.9%
